This assay has as its target MSMEG_0317Δ (periplasmic domain of Mycobacterium smegmatis LmcA, MSMEG_0317, residues 30-323) (Mycobacterium smegmatis) (UniProt A0QP93). Put plainly: SEC; HiLoad 16/60 Superdex 75; 20 mM Tris pH 7.5, 200 mM NaCl, 5% (v/v) glycerol; calibrated with bovine gamma-globulin (158 kDa), chicken ovalbumin (44 kDa) and equine myoglobin (17 kDa); both purified.

These are yes or no findings as the source states them, for the method shown. Tags and fused reporters may be left off the sequences shown.

B1: MSMEG_0317Δ (periplasmic domain of Mycobacterium smegmatis LmcA, MSMEG_0317, residues 30-323) (domain or fragment, UniProt A0QP93 30-323)
chain: TYTKGKIAKIPLDIDTSLVSDGTATAFDPDSLVAERFKIDRDVPVALQQQMSVEAPSNADVVTFQVGTTLRRTDRQQDAGLLLALVDTVTMNRNTAEAVSSENNPGGAVQKPRAIEDEKPPTNIALPHEGLTYRFPFDTEKKTYPFFDPIAQKAFDANYDGEEDVNGLTTYRFVQNVGYDADGKLADPIKYSSLYEDDADASVTARAEVWGVPGEPDESITMDRFYAASRTFWVDPVSGTIVKSEEHGYQYYAREALKPEVTYVDFKVTTNEESVESQVAAASDERDRIALWTR
For B1, the binding result is listed as “no binding”.

For the origin of these results see paper PMC8972800.
